Assay results reported in US20240148824A1.
Where a chain is given by its changes, count along the chain named. These are yes or no findings as the source states them, for the method shown. Some entries that bind do so weakly or less than the wild type.

Chains of the proteins cited; added tags and fusions are not shown. Lines headed by an entry give the natural chain unless they say otherwise; changes in a name come on top.
UniProt Q12884: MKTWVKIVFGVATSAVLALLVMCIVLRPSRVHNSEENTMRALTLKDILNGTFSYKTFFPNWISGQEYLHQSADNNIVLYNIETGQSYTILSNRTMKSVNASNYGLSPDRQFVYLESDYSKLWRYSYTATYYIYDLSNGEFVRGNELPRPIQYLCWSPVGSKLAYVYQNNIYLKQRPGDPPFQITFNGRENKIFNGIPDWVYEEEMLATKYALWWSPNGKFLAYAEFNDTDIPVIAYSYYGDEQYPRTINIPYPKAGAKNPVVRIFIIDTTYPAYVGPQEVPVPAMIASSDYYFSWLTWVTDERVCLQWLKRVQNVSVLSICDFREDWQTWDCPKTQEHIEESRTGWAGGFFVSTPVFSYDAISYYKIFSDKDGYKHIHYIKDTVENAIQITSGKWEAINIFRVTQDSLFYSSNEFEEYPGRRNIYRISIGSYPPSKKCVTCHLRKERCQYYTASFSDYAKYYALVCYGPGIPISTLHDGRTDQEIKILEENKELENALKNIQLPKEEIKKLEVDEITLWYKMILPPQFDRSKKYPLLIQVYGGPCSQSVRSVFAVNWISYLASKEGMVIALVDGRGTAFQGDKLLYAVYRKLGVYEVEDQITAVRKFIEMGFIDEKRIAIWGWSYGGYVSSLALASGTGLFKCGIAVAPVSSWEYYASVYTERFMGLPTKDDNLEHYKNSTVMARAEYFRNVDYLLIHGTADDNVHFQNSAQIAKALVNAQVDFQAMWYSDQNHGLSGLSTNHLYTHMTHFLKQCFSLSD

B1: 2HFA44 (VHH)
VHH: QVQLQESGGGLVQAGGSLRLSCAASGGFDSRNAMGWYRQAPGKRREWVATITSDGRTNYADSVKARFTISRDNSKNTVYLQMNSLKPEDTAVYYCNAAPPIFGSWGQGTQVTVSS
B2: 2HFA12 (VHH)
VHH: QVQLQESGGGLVQAGGSLRLSCAASGSISMLNSMGWYRQALGKQREFVAGITSGGRTNYADSVKGRFAISRDNDKNTVYLQMNSLKPEDTAVYYCNTWPPRIAFDSWGQGTQVTVSS
B3: 2HFA24 (VHH)
VHH: QVQLQESGGGLVQAGGSLRLSCAASGSIFSSNAMGWYRQAAGKRRELVAGIRSDGNTNYVDSVKGRFTISRDRAKNTVYLQMTSLKPEDTAVYYCNYWPPPLRQGGDYAYWGQGTQVTVSS
B4: 2HFA67 (VHH)
VHH: QVQLQESGGGLVQAGGSLRLSCVVSGSFDSRNAMAWYRQALGKERVWVAGIISDGSTNYADAVKGRFTISRDNDKNTVYLQMNSLKPEDTAVYYCNAWPPRIGLGSWGQGTQVTVSS
B5: 2HFA29 (VHH)
VHH: QVQLQESGGGLVQAGGSLRLSCAASGTMSSINAMGWYRQAPGKQRELVAGILSDGTTKYVESVKGRFTISRDNAKNTVHLQMNSLKVEDTAVYYCNFFPPPVPASWGQGTQVTVSS
B6: 2HFA51 (VHH)
VHH: QVQLQESGGGLVQAGGSLRLSCAVSGIISSMNAMGWYRQAPGKRRELVAGLGSGVSTTYADAVKGRFTISRDNAKNTLYLQMNSLKPEDTAVYYCNRWPPPYDYWGQGTQVTVSS
B7: 2HFA52 (VHH)
VHH: B1 VHH with Q13R, G27T, S53T, S74A
B8: 2HFA62 (VHH)
VHH: QVQLQESGGGLVQAGGSLRLSCAASRSIFSIGTMGWYRQAPGKRRELVAFITVDHNTYYTDSVKGRFTISTENDKNTVYLQMNSLKPEDTAVYYCNRAPPSTDGDRWGQGTQVTVSS
B9: 2HFA26 (VHH)
VHH: QVQLQESGGGLVQAGGSLRLSCAASGRTFSTYAMGWFRQAPGKERELVAAISNGGSAYYADSVKGRFTISRDNARNTVYLQTNSLKPEDTAVYYCAARRGSAYYTNRIDWPYWGQGTQVTVSS
B10: 2HFA25 (VHH)
VHH: B9 VHH with T31S
B11: 2HFA1 (VHH)
VHH: B9 VHH with Q13E, G15E, A23I, S30G, N53S
B12: 2HFA3 (VHH)
VHH: B9 VHH with Q13E, G15E, A23I, S30G, N53T, A57T, R107H, I108V
B13: 2HFA7 (VHH)
VHH: B9 VHH with Q13E, G15E, S30G, T31S, E44S, N53S, S56T, A57T, R99T
B14: 2HFA31 (VHH)
VHH: B9 VHH with Q13E, G15E, S30G, T31S, E44S, N53S, S56T, A57T, L85P, R99T
B15: 2HFA6 (VHH)
VHH: B9 VHH with Q13E, G15E, S30G, M34L, G35A, E44S, N53S, A57T, R98K, R99T
B16: 2HFA53 (VHH)
VHH: QVQLQESGGGLVEAEGSLRLSCAASGRAFGSYAMGWFRQAPGLERELVAAISSGGTTYYADSVKGRFTISRDNARNTVYLQTNSLKPEDTAVYYCAARTGGAAYTRRIDWPYWGQGTQVTVSS
B17: 2HFA9 (VHH)
VHH: QVQLQESGGGLVEAEGSLRLSCAASGRTFGSYAMGWFRQAAGKERELVAAISAGGSTLYADNVKGRFTISRDNARNTVYLLSNSLKPEDTAVYYCAARRGSAYYTNHIDWPYWGQGTQVTVSS
B18: 2HFA11 (VHH)
VHH: B1 VHH with G27S, S53T, I69V, S74A, E88D, G103N
B19: 2HFA73 (VHH)
VHH: B17 VHH with E13Q, A14P, E15G
B20: 2HFA55 (VHH)
VHH: B16 VHH with A28T, L43K, T56S, Y58L, R75K, T82M, T99S, A103Y, R106A, I108V
B21: 2HFA71 (VHH)
VHH: QVQLQESGGGLVEAEGSLRLSCAASGRTFGSYAMGWFRQAPGKERELVAAISSGGSTLYAGSVKGRFTISKDNAKNTVYLQMNSLKPEDTAVYYCAARSGGAYYTARVDWPYWGQGTQVTVSS
B22: 2HFA65 (VHH)
VHH: QVQLQESGGGLVQAGGSLRLSCAASGNIDSIASMGWYRQAPGKQRELVAAISVGGSTYYADSVKGRFTISRDNARNTVYLQTNSLKPEDTAVYYCAARRGSAYYTSRIDWPYWGQGTQVTVSS
B23: 2HFA49 (VHH)
VHH: B21 VHH with E13Q, A50G, S56I, L58N, G61H, K71R, N73I, A74D, Y79F, A106S
B24: 2HFA23 (VHH)
VHH: QVQLQESGGGLVQAGGSLRLSCAASGRTFSMYAIGWFRQAPGKERELVASISSGGSTNYADSVKGRFTISRDNAEKTVYLQMMSLEPEATGVYYCAARDGSALYTAHSDWDYWGQGTQVTVSS
B25: 2HFA36 (VHH)
VHH: QVQLQESGGGLVQPGDSLRLSCAASERTFSMYAIGWFRQAPGKERELVAGISSGGSTNYADSVKGRFTISRDNPKKTVYLQMMSLEPEDTGVYYCAARSGSAYFSGRYYWNYWGQGTQVTVSS
B26: 2HFA14 (VHH)
VHH: QVQLQESGGGLVQAGDSLRLSCAASGRTFSSYVMGWFRQVPGKQRELVAAITSGLSTYYADSLKGRFTISRDNAKNTMYLQMNSLKLEDTAVYYCAAREGGGIWTSSTQYDYWGQGTQVTVSS
B27: 2HFA4 (VHH)
VHH: B1 VHH with G27S, F28I, S30I, K43T, S53T, S74A, A97L
B28: 2HFA43 (VHH)
VHH: QVQLQESGGGLVQAGGSLRLSCVASGTIFSSGAMAMGWYRQAPGKQREWVAGITGSRTTTYADSVKGRFTISRDNAENTVFLQMNNLKSEDTAVYYCNLWPPSRPDHWGQGTQVTVSS
B29: 2HFA50 (VHH)
VHH: QVQLQESGGGLVQAGGSLRLSCVASGTISSGAMGWYRQVPGKQREWVAGITGSRTTMYTESVKGRFTISRDNAENTVFLQMNNLKSEDTAVYYCNLWPPSRPDYWGQGTQVTVSS
B30: 2HFA46 (VHH)
VHH: B1 VHH with G27S, F28I, A33T, S53T, D54G, S74A, A97L, G103N
B31: 2HFA10 (VHH)
VHH: QVQLQESGGGLVQAGGSLRLSCTVAESIDVRNAMGWYRQAPGKRREWVATITTGGRTNYADSVKARFTISRDNAKNTVYLQMNSLKPEDTAVYYCNAAPPILNSWGQGTQVTVSS
B32: 2HFA38 (VHH)
VHH: B1 VHH with Q13R, A14V, A24V, G27S, A33S, D54G, G55S, S74A, N83D, G103N
B33: 2HFA20 (VHH)
VHH: QVQLQESGGGLVQAGGSLRLSCAVSGRLFSANTMGWYRQAPGKRRELVATILSSGSTNYADSVKGRFTISRDDAKNTVYLQMNSLKPEDTAVYYCNLAPPPEGYWGQGTQVTVSS
B34: 2HFA5 (VHH)
VHH: B33 VHH with A74G, E88D, L97F

Biological target: recombinant His6-tagged extracellular domain of human FAP (human) (UniProt Q12884)
Experiment: ELISA, crude periplasmic extracts on coated antigen

Binder	binding
B1	binds
B2	binds
B3	binds
B4	binds
B5	binds
B6	binds
B7	binds
B8	binds
B9	binds
B10	binds
B11	binds
B12	binds
B13	binds
B14	binds
B15	binds
B16	binds
B17	binds

Binder	binding
B18	binds
B19	binds
B20	binds
B21	binds
B22	binds
B23	binds
B24	binds
B25	binds
B26	binds
B27	binds
B28	binds
B29	binds
B30	binds
B31	binds
B32	binds
B33	binds
B34	binds
